In patent publication US6413750B1, “(R)-specific alcohol dehydrogenases from lactobacillus with improved catalytic activity using an NAD+ substrate” (Forschungszentrum Jülich GmbH, priority 1998, dated 2002) one finds pH optimum data, which are given here for 2 substances.

The data set in a line: pH optimum of enzyme activity. The format is biochemical, Lactobacillus brevis. On the procedure: For determining the optimal pH value, the following buffers were used: pH 4.5=Na-acetate; pH 5.0 and 5.5=Na-acetate; pH 6.0 and 6.5=Kpi or MES; pH 7.0 and 7.5=Kpi or TEA; pH 8.0 and 8.6=Tris; pH 9.0=Bicine. All buffers were used in a concentration of 100 mM. For the determination of the reductive reaction 10 mM acetophenon was added. The concentrations of NADP/NAD were each 2 mM. The concentration of NADH/NADPH was each 0.25 mM. For measurement, 970 μl of the respective buffer solution, which already included substrate at the desired concentration, was mixed with 20 μl of the start solution with the desired co-enzyme. The reaction was started with 10 μl enzyme. the dilution factor depended on the activity, it was chosen in the range of 1 to 3 U/ml.

[1] abbreviates: oxidation of phenylethanol with NADP+.
Where [2] appears, read: reduction of acetophenone with NADH.
The mark [3] stands for this setting: reduction of acetophenone with NADPH.

Consider “mutant 1/1: L. brevis ADH mutant with exchanges A9G, R38L, K45M (SEQ ID NO 17) (SNRLDGKVGIITGGTLGIGLAIATKFVEEGAKVMITGLHSDVGEMAAKSV; OTHER INFORMATION: mutant 1/1)”, for which the pH optimum is 7.0 under setting [1], 7.5 (oxidation with NAD+), 6.0 under setting [2] and 6.0 under setting [3].
For “mutant 2/2: L. brevis ADH mutant with exchanges A9G, R38L, H39L, K48M (SEQ ID NO 19) (SNRLDGKVGIITGGTLGIGLAIATKFVEEGAKVMITGLLSDVGEKAAMSV; OTHER INFORMATION: mutant 2/2)”, the pH optimum is 7.5 under setting [1], 7.5 (oxidation with NAD+), 5.0 under setting [2] and 6.0 under setting [3].
